# Assay results from article PMC3267021, “The Molecular Basis for the Endocytosis of Small R-SNAREs by the Clathrin Adaptor CALM” (Cell, 2011).
# Protein sequences, listed by entry. Tags and fused reporters are not part of them. Residues count along the entry.
# UniProt P63027, residues 1-96: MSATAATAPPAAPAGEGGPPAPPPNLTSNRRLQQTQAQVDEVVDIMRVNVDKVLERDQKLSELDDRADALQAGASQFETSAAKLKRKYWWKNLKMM
# UniProt Q9Y6I3, residues 1-163: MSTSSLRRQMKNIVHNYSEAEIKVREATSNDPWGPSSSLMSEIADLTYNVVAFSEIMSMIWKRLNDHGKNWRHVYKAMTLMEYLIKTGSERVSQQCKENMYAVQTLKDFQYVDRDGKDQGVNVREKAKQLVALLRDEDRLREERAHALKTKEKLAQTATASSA
# These are yes or no findings as the source states them, for the method shown. Some binding calls cover weakened binding; strength is not graded here. For some of these results: Where a sequence is shown, tags or fusion partners need not be part of it.
# T1: GST-VAMP8 (VAMP8 residues 1-76, full cytoplasmic portion) (mouse) (UniProt O70404)
# T1 sequence: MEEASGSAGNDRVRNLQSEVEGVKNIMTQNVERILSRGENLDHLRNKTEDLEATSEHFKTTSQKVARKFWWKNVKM
# T2: GSTVAMP8 L16PV23P (mouse) (UniProt O70404)
# T2 sequence: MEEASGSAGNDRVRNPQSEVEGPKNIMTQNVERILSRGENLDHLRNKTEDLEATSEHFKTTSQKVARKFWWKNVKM
# T3: GSTVAMP8 K24AM27A (mouse, UniProt O70404 1-76, K24A | M27A)
# T3 construct: VAMP8, mouse, residues 1-76; pGEX 4T2 VAMP8_(1-76) (mouse) 'and mutants thereof'; also called K24AM27A VAMP8; Lys24AlaMet27Ala mutant of VAMP8; source: E. coli BL21(DE3) pLysS, purified (glutathione sepharose, S200 gel filtration)
# T3 sequence (looked up): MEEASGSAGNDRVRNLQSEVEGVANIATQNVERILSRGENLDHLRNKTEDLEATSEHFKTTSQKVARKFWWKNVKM
# T4: GSTVAMP8:SNAP23:Syntaxin3(195-253) SNARE complex (wt VAMP8) (mouse | human) (UniProt O70404+O00161+Q13277)
# T4 sequence 1: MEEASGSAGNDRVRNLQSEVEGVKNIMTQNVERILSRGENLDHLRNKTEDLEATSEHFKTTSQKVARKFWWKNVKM
# T4 sequence 2: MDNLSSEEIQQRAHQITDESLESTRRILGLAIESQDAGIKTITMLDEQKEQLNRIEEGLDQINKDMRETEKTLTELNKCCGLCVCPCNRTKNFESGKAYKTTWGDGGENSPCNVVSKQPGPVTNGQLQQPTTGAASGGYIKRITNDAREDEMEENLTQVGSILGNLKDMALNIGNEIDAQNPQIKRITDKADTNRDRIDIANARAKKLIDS
# T4 sequence 3: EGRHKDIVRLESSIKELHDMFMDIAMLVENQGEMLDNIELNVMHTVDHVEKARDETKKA
# T5: GSTVAMP8 K24AM27A:SNAP23:Syntaxin3(195-253) SNARE complex (mouse | human) (UniProt O70404+O00161+Q13277)
# T5 sequence 1: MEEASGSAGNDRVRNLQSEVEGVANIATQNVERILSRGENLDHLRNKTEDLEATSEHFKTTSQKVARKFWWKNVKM
# T5 sequence 2: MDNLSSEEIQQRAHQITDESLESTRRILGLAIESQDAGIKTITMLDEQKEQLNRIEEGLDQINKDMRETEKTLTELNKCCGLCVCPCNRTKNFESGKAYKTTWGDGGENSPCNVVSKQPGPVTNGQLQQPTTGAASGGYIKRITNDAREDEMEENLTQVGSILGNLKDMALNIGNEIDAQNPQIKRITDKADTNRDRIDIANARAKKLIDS
# T5 sequence 3: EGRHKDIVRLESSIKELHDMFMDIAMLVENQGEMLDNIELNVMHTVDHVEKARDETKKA
# T6: GSTVAMP8 K24A (mouse) (UniProt O70404)
# T6 sequence: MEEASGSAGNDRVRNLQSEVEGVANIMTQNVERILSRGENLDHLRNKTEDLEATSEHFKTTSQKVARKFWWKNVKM
# T7: GSTVAMP8 M27A (mouse) (UniProt O70404)
# T7 sequence: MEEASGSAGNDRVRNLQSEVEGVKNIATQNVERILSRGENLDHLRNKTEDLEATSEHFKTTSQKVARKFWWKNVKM
# B1: His6MycCALM_(ANTH) (CALM ANTH domain, residues 1-289) (domain or fragment, UniProt O55012 1-289)
# chain: MSGQSLTDRITAAQHSVTGSAVSKTVCKATTHEIMGPKKKHLDYLIQCTNEMNVNIPQLADSLFERTTNSSWVVVFKSLITTHHLMVYGNERFIQYLASRNTLFNLSNFLDKSGLQGYDMSTFIRRYSRYLNEKAVSYRQVAFDFTKVKRGADGVMRTMNTEKLLKTVPIIQNQMDALLDFNVNSNELTNGVINAAFMLLFKDAIRLFAAYNEGIINLLEKYFDMKKNQCKEGLDIYKKFLTRMTRISEFLKVAEQVGIDRGDIPDLSQAPSSLLDALEQHLASLEGKK
# B2: His6MycAP180_(ANTH) (AP180 ANTH domain, residues 1-304) (domain or fragment, UniProt Q61548 1-304)
# chain: MSGQTLTDRIAAAQYSVTGSAVARAVCKATTHEVMGPKKKHLDYLIQATNETNVNIPQMADTLFERATNSSWVVVFKALVTTHHLMVHGNERFIQYLASRNTLFNLSNFLDKSGSHGYDMSTFIRRYSRYLNEKAFSYRQMAFDFARVKKGADGVMRTMVPEKLLKSMPILQGQIDALLEFDVHPNELTNGVINAAFMLLFKDLIKLFACYNDGVINLLEKFFEMKKGQCKDALEIYKRFLTRMTRVSEFLKVAEQVGIDKGDIPDLTQAPSSLMETLEQHLNTLEGKKPGNNEGSGAPSPLSK
# Experiments:
# [1] = biological target: GST-VAMP2 (VAMP2 residues 1-96) (human) (UniProt P63027); assay: ITC; VPiTC; 2 mM His6MycCALM_(ANTH) (WT or mutant) or GST cleaved Epsin_(ENTH) titrated in 37 injections of 4-8 μL into 0.15 mM GST-SNARE in the cell; 100 mM HEPES pH 7.4, 150 mM NaCl, 4 mM DTT; legends give a representative run with SEM of the fit, the text the average of all runs; both purified
# [2] = biological target: T1, GST-VAMP8 (VAMP8 residues 1-76, full cytoplasmic portion) (mouse); assay: as above
# [3] = biological target: T2, GSTVAMP8 L16PV23P (mouse); assay: as above
# GSTVAMP8 K24AM27A [4] = biological target: T3, GSTVAMP8 K24AM27A; assay: as above
# [5] = biological target: T4, GSTVAMP8:SNAP23:Syntaxin3(195-253) SNARE complex (wt VAMP8) (mouse | human); assay: pull-down; GST-tagged bait (SNARE or preformed, purified 1:1:1 SNARE complex, 2 nmoles) on glutathione beads, His6Myc-tagged prey; 20 mM HEPES pH 7.4, 150 mM NaCl, 4 mM DTT, 4 mM β-mercaptoethanol, 0.1% NP-40, 0.05% BSA; 4°C overnight; Coomassie gel and anti-myc western blot; both purified
# [6] = biological target: T5, GSTVAMP8 K24AM27A:SNAP23:Syntaxin3(195-253) SNARE complex (mouse | human); assay: as above
# GSTVAMP8 K24A (mouse) = biological target: T6, GSTVAMP8 K24A (mouse); assay: as above
# GSTVAMP8 M27A (mouse) = biological target: T7, GSTVAMP8 M27A (mouse); assay: as above
# [7] = biological target: T2, GSTVAMP8 L16PV23P (mouse); assay: as above
# GSTVAMP8 K24AM27A [8] = biological target: T3, GSTVAMP8 K24AM27A; assay: as above
# [9] = biological target: T1, GST-VAMP8 (VAMP8 residues 1-76, full cytoplasmic portion) (mouse); assay: SPR; GST VAMP8 coupled directly to a CM5 chip; 200 nM analyte for 60 s at 30 μl/min; 20 mM HEPES pH 7.4, 150 mM NaCl, 4 mM DTT; Biacore 3000, 20°C; mock channel (GST) subtracted; both purified
# [10] = biological target: GST-VAMP2 (VAMP2 residues 1-96) (human) (UniProt P63027); assay: pull-down; GST-tagged bait (SNARE or preformed, purified 1:1:1 SNARE complex, 2 nmoles) on glutathione beads, His6Myc-tagged prey; 20 mM HEPES pH 7.4, 150 mM NaCl, 4 mM DTT, 4 mM β-mercaptoethanol, 0.1% NP-40, 0.05% BSA; 4°C overnight; Coomassie gel and anti-myc western blot; both purified
# [11] = biological target: T1, GST-VAMP8 (VAMP8 residues 1-76, full cytoplasmic portion) (mouse); assay: as above
molecule,measurement,setting,value
"Epsin1_(ENTH) (ENTH domain of epsin1, residues 1-163), GST cleaved (from UniProt Q9Y6I3 1-163) (domain or fragment)",binding,[1],no binding (tested: 2 mM titrated into 0.15 mM GST-SNARE)
same,binding,[2],no binding (tested: 2 mM titrated into 0.15 mM GST-SNARE)
B1,binding,[3],no binding (tested: 2 mM titrated into 0.15 mM GST-SNARE)
same,binding,GSTVAMP8 K24AM27A [4],no binding (tested: 2 mM titrated into 0.15 mM GST-SNARE)
same,binding,[5],no binding
same,binding,[6],no binding
same,binding,GSTVAMP8 K24A (mouse),binds weakly
same,binding,GSTVAMP8 M27A (mouse),no binding
same,binding,[7],no binding
same,binding,GSTVAMP8 K24AM27A [8],no binding
B2,binding,[9],no binding (tested: 200 nM)
same,binding,[10],no binding
same,binding,[11],no binding
